# Assay results reported in ChEMBL document CHEMBL4303122, “Identification of potential treatments for COVID-19 through artificial intelligence-enabled phenomic analysis of human cells infected with SARS-CoV-2” (2020).
# Whole data set: some 1,600 compounds, median “Hit score” near 0.13, cut for the highest 2% near 0.46. The list shows a part of the results.
# System: SARS-CoV-2
# Test: Antiviral activity against SARS-CoV-2 (USA-WA1/2020 strain) measured by imaging in HRCE cells at MOI 0.4 after 96 hrs (reported as hit score from 0-1 for on-disease vs off-disease activity: scores >0.6 considered hits)
# Format: functional, Homo sapiens
row,SMILES,Hit score
1,CC(=O)NC(CSC/C=C(\C)CC/C=C(\C)CCC=C(C)C)C(=O)O (stereo unspecified),0.0647
2,Cc1ncc([N+](=O)[O-])n1CC(O)CN1CCOCC1 (stereo unspecified) [MORINIDAZOLE],0.04545
3,Clc1ccc2c(c1)C(N1CCNCC1)=Nc1ccccc1O2 [AMOXAPINE],0.1027
4,O=C(Cn1ccnc1[N+](=O)[O-])NCc1ccccc1 [BENZNIDAZOLE],0.09787
5,O=C(c1cc(Cc2n[nH]c(=O)c3ccccc23)ccc1F)N1CCN(C(=O)C2CC2)CC1 [OLAPARIB],0.1367
6,CC[C@H]1OC(=O)[C@@](C)(F)C(=O)[C@H](C)[C@@H](O[C@@H]2O[C@H](C)C[C@H](N(C)C)[C@H]2O)[C@](C)(OC)C[C@@H](C)C(=O)[C@H](C)[C@H]2N(CCCCn3cc(-c4cccc(N)c4)nn3)C(=O)O[C@]12C [SOLITHROMYCIN],0.2407
7,CC(C)(Oc1ccc(CCNC(=O)c2ccc(Cl)cc2)cc1)C(=O)O [BEZAFIBRATE],-0.02924
8,OCCN1CCN(CCCN2c3ccccc3Sc3ccc(C(F)(F)F)cc32)CC1 [FLUPHENAZINE],0.1224
9,CC[C@H]1OC(=O)[C@H](C)[C@@H](O[C@H]2C[C@@](C)(OC)[C@@H](O)[C@H](C)O2)[C@H](C)[C@@H](O[C@@H]2O[C@H](C)C[C@H](N(C)C)[C@H]2O)[C@](C)(O)C[C@@H](C)C(=O)[C@H](C)[C@@H](O)[C@]1(C)O [ERYTHROMYCIN],0.04359
10,CC(C(=O)O)c1ccc(CC2CCCC2=O)cc1 (stereo unspecified) [LOXOPROFEN],0.02648
11,Cl.NCC(=O)CCC(=O)OCc1ccccc1,0.2289
12,C[C@H](NCc1ccc(OCc2cccc(F)c2)cc1)C(N)=O [SAFINAMIDE],0.04637
13,C=CCc1ccc(O)c(OC)c1 [EUGENOL],0.2298
14,CN1C(=O)COc2c(C(=O)NC3CN4CCC3CC4)cc(Cl)cc21 (stereo unspecified) [AZASETRON],0.1081
15,CC(=O)N[C@@H](Cc1ccc(O)cc1)C(=O)O [ACETYL TYROSINE],0.135
16,OC[C@@H](O)[C@@H](O)[C@H](O)[C@H](O)CO [MANNITOL],0.02698
17,CC(C)=CCOc1ccc(/C=C/C(=O)c2ccc(OCC=C(C)C)cc2OCC(=O)O)cc1 [SOFALCONE],0.2677
18,Oc1ccc(C2CNCCc3c2cc(O)c(O)c3Cl)cc1 (stereo unspecified) [FENOLDOPAM],0.226
19,CC(C(=O)O)c1cccc(Oc2ccccc2)c1 (stereo unspecified) [FENOPROFEN],0.3412
20,CCCc1ncc(C[n+]2ccccc2C)c(N)n1 [AMPROLIUM ION],0.04873
21,OC[C@H]1OC(O)[C@H](O)[C@@H](O)[C@@H]1O (stereo partly specified) [DEXTROSE],0.07162
22,CC(C)c1nc(N(C)S(C)(=O)=O)nc(-c2ccc(F)cc2)c1/C=C/[C@@H](O)C[C@@H](O)CC(=O)O [ROSUVASTATIN],0.05696
23,C=C(CC)C(=O)c1ccc(OCC(=O)O)c(Cl)c1Cl [ETHACRYNIC ACID],0.1661

# Two of the compounds above, tab-delimited.
row	SMILES	Hit score
8	OCCN1CCN(CCCN2c3ccccc3Sc3ccc(C(F)(F)F)cc32)CC1 [FLUPHENAZINE]	0.1224
19	CC(C(=O)O)c1cccc(Oc2ccccc2)c1 (stereo unspecified) [FENOPROFEN]	0.3412

# Next structures:

row,SMILES,Hit score
1,OC[C@H]1O[C@@H](O[C@@H]2[C@@H](CO)O[C@](O)(CO)[C@H]2O)[C@H](O)[C@@H](O)[C@H]1O [LACTULOSE],0.1124
2,COc1cc2c(cc1OC)C1CC(=O)C(CC(C)C)CN1CC2 (stereo unspecified) [TETRABENAZINE],-0.001281
3,Nc1ccc(S(=O)(=O)NC(=O)c2ccccc2)cc1 [SULFABENZAMIDE],0.04858
4,CCOCCn1c(C2CCN(CCc3ccc(C(C)(C)C(=O)O)cc3)CC2)nc2ccccc21 [BILASTINE],0.1453
5,CCN(CC)CCCC(C)Nc1ccnc2cc(Cl)ccc12 (stereo unspecified) [CHLOROQUINE],0.0509
6,CS(=O)(=O)c1ccc([C@@H](O)[C@@H](CF)NC(=O)C(Cl)Cl)cc1 [FLORFENICOL],0.1507
7,C[C@](N)(Cc1ccc(O)cc1)C(=O)O [METYROSINE],0.1688
8,CC(=O)[C@H]1CC[C@H]2[C@@H]3C=CC4=CC(=O)CC[C@@]4(C)[C@@H]3CC[C@]12C [DYDROGESTERONE],0.01426
9,N#C[C@@]1(c2ccc3c(N)ncnn23)O[C@H](CO)[C@@H](O)[C@H]1O [GS-441524],0.865
10,c1ccc2c(c1)CCCC2C1=NCCN1 (stereo unspecified) [TETRAHYDROZOLINE],0.1519
11,CCCCN1C[C@H](O)[C@@H](O)[C@H](O)[C@H]1CO,0.1529
12,COc1c(N2C[C@@H]3CCCN[C@@H]3C2)c(F)cc2c(=O)c(C(=O)O)cn(C3CC3)c12 [MOXIFLOXACIN],0.09676
13,OC(CNc1ccccc1)Cn1c2ccc(Br)cc2c2cc(Br)ccc21 (stereo unspecified),0.183
14,N[C@@H](CC(=O)O)C(=O)O [ASPARTIC ACID],0.2438
15,CS(=O)(=O)Nc1cc2occ(NC=O)c(=O)c2cc1Oc1ccccc1 [IGURATIMOD],0.1567
16,Cc1ncc([N+](=O)[O-])n1C [DIMETRIDAZOLE],0.2713
17,C1N2CN3CN1CN(C2)C3 [METHENAMINE],0.2305
18,C=CCN1C[C@H](C(=O)N(CCCN(C)C)C(=O)NCC)C[C@@H]2c3cccc4[nH]cc(c34)C[C@H]21 [CABERGOLINE],-0.1061
19,NNCCc1ccccc1 [PHENELZINE],0.04153
20,CC(=O)OCC(=O)[C@@]1(OC(C)=O)[C@@H](C)C[C@H]2[C@@H]3C[C@H](F)C4=CC(=O)C=C[C@]4(C)[C@@]3(F)[C@@H](O)C[C@@]21C [DIFLORASONE DIACETATE],0.08777
21,Oc1ccc(Cl)cc1 [PARACHLOROPHENOL],0.02412
22,CC(=O)O[C@]1(C(C)=O)CC[C@H]2[C@@H]3C=C(C)C4=CC(=O)CC[C@@H]4[C@H]3CC[C@@]21C [NOMEGESTROL ACETATE],0.2782
23,Cc1ccnc(NC(=O)C(C)c2cccc(C(=O)c3ccccc3)c2)c1 (stereo unspecified) [PIKETOPROFEN],0.1264
